Here are results for one molecule from publication PMC11705647.

Sequences of proteins named here, by UniProt entry; tags and fusion partners are left off.
UniProt P30051: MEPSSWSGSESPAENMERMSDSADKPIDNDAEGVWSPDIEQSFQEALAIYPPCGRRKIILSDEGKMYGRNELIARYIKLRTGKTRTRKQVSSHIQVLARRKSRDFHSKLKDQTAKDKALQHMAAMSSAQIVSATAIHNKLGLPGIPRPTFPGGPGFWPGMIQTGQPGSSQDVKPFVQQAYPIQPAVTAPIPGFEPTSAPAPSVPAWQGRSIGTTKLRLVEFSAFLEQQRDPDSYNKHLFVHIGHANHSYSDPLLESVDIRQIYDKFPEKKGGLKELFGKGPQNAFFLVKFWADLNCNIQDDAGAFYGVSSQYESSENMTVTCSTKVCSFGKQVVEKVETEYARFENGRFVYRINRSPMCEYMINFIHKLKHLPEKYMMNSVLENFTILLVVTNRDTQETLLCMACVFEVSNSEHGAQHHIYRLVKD

No constants are given. Whether binding was seen depends on the method and setting. In cells and extracts the contact can be indirect. Some results given as binding are weak or reduced against the parent protein; the word gives no strength.

This assay addresses TEA domain family member 1 (TEAD1) (mouse (endogenous in TCMK-1)) (UniProt P30051). The assay is described as follows: co-IP; TCMK-1 cells treated with 10 µM cisplatin or vehicle for 24 h, lysed in NP-40 lysis buffer; lysates pre-cleared, incubated with rabbit anti-TEAD1 antibody or rabbit IgG overnight at 4°C, precipitated with protein A/G Plus-agarose; immunoblotted for PGC1α. On the technique in general: In western blotting, separated proteins are transferred to a membrane and probed.

B1: peroxisomal proliferator-γ coactivator-1α (PGC-1α) (protein, UniProt O70343 1-797)
chain: MAWDMCSQDSVWSDIECAALVGEDQPLCPDLPELDLSELDVNDLDTDSFLGGLKWCSDQSEIISNQYNNEPANIFEKIDEENEANLLAVLTETLDSLPVDEDGLPSFDALTDGAVTTDNEASPSSMPDGTPPPQEAEEPSLLKKLLLAPANTQLSYNECSGLSTQNHAANHTHRIRTNPAIVKTENSWSNKAKSICQQQKPQRRPCSELLKYLTTNDDPPHTKPTENRNSSRDKCASKKKSHTQPQSQHAQAKPTTLSLPLTPESPNDPKGSPFENKTIERTLSVELSGTAGLTPPTTPPHKANQDNPFKASPKLKPSCKTVVPPPTKRARYSECSGTQGSHSTKKGPEQSELYAQLSKSSGLSRGHEERKTKRPSLRLFGDHDYCQSLNSKTDILINISQELQDSRQLDFKDASCDWQGHICSSTDSGQCYLRETLEASKQVSPCSTRKQLQDQEIRAELNKHFGHPCQAVFDDKSDKTSELRDGDFSNEQFSKLPVFINSGLAMDGLFDDSEDESDKLSYPWDGTQPYSLFDVSPSCSSFNSPCRDSVSPPKSLFSQRPQRMRSRSRSFSRHRSCSRSPYSRSRSRSPGSRSSSRSCYYYESSHYRHRTHRNSPLYVRSRSRSPYSRRPRYDSYEAYEHERLKRDEYRKEHEKRESERAKQRERQKQKAIEERRVIYVGKIRPDTTRTELRDRFEVFGEIEECTVNLRDDGDSYGFITYRYTCDAFAALENGYTLRRSNETDFELYFCGRKQFFKSNYADLDTNSDDFDPASTKSKYDSLDFDSLLKEAQRSLRR
Turning to B1, the binding result is given as “binds”.
